Counter-ions that a name gives are not always drawn. About 180 (8.6%) of roughly 2,100 compounds showed an effect of 50% or more. Some of the results follow.
System: MOLM1 and UCSD/AML1 (averaged)
Experiment: cell viability relative to DMSO control (POC); higher = less growth inhibition
Conditions: 1 µM; 72 h
Protocol: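 Primary viability screen in the 3q26 EVI1-high AML cell lines MOLM1 and UCSD/AML1 (1.5e3 cells/well, 384-well), compounds at 1 uM for 72 h. ATP CellTiter-Glo read-out given as percent of viable cells over DMSO control (POC), averaged over duplicates. DMSO was the negative control and 5 uM etoposide the positive control. This mapping covers the MicroSource Spectrum and Selleck anticancer libraries (drug names).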

Compound	cell viability
CN[C@@H]1[C@H](O[C@H]2[C@H](O[C@H]3[C@H](O)[C@@H](O)[C@H](N=C(N)N)[C@@H](O)[C@@H]3N=C(N)N)O[C@@H](C)[C@]2(O)C=O)O[C@@H](CO)[C@H](O)[C@H]1O	99.6%
Nc1nc(Cl)nc2c1ncn2[C@H]1C[C@H](O)[C@@H](CO)O1 [Cladribine]	5.67%
COc1ccccc1OCC(O)CO (configuration not stated)	101%
COc1cc(C)c2c(c1C=O)Oc1c(c(C)c(O)c3c1C(O)OC3=O)OC2=O (configuration not stated)	104%
CC[C@]1(O)C[C@H]2CN(CCc3c([nH]c4ccccc34)[C@@](C(=O)OC)(c3cc4c(cc3OC)N(C=O)[C@H]3[C@@](O)(C(=O)OC)[C@H](OC(C)=O)[C@]5(CC)C=CCN6CC[C@]43[C@@H]65)C2)C1	11.3%
CC[C@]1(O)C[C@H]2CN(CCc3c([nH]c4ccccc34)[C@@](C(=O)OC)(c3cc4c(cc3OC)N(C=O)[C@H]3[C@@](O)(C(=O)OC)[C@H](OC(C)=O)[C@]5(CC)C=CCN6CC[C@]43[C@@H]65)C2)C1 [Vincristine Sulfate]	7.83%
Cc1cc(=O)[nH]c(=S)[nH]1	92.9%
CN[C@@H](C)C(=O)N[C@H]1CN(C(=O)CC(C)C)CC[C@H]2CC[C@@H](C(=O)NC(c3ccccc3)c3ccccc3)N2C1=O	68.5%
Cc1cccc(C)c1OCC(C)N (configuration not stated)	93.2%
CCN(CC)CCNC(=O)c1c(C)[nH]c(/C=C2\C(=O)Nc3ccc(F)cc32)c1C [Sunitinib Malate (Sutent)]	32.9%
CC(=O)N1CCCC1C(=O)O (configuration not stated)	108%
Oc1ccc(/C=C/c2cc(O)cc(O)c2)cc1	98.9%
Cc1c(N(C)C)c(=O)n(-c2ccccc2)n1C	98.6%
Oc1c(Cl)cc(Cl)c(Cl)c1Cc1c(O)c(Cl)cc(Cl)c1Cl	101%
CCOc1cc2ncc(C#N)c(Nc3ccc(F)c(Cl)c3)c2cc1NC(=O)/C=C/CN(C)C [Pelitinib (EKB-569)]	14.4%
C=CCc1cccc(/C=N/NC(=O)CN2CCN(Cc3ccccc3)CC2)c1O	79.4%
CC(C(=O)O)c1ccc2c(c1)[nH]c1ccc(Cl)cc12 (configuration not stated)	106%
O=C1c2c(O)cccc2C([C@@H]2O[C@H](CO)[C@@H](O)[C@H](O)[C@H]2O)c2cc(CO)cc(O)c21 (some centres not stated)	99.7%
Nc1nc2[nH]cnc2c(=S)[nH]1	99.9%
CN(C)C(=O)C(CCN1CCC(O)(c2ccc(Cl)cc2)CC1)(c1ccccc1)c1ccccc1	104%
O=c1ccc2cc(O)c(O)cc2o1	102%
C[C@H](CCC(=O)O)[C@H]1CC[C@H]2[C@@H]3[C@H](O)C[C@@H]4C[C@H](O)CC[C@]4(C)[C@H]3C[C@H](O)[C@]12C	100%
CC(C(=O)O)c1ccc(-c2ccccc2)c(F)c1 (configuration not stated)	98.2%
Cc1cc(O)c2c(c1)C(=O)c1cccc(O)c1C2=O	115%
Cc1cc(O)c2c(c1)C(=O)c1cccc(O)c1C2=O [Chrysophanic acid (Chrysophanol)]	93.8%
C[C@H]1O[C@@H](O[C@H]2[C@@H](O)C[C@H](O[C@H]3[C@@H](O)C[C@H](O[C@H]4CC[C@@]5(C)[C@H](CC[C@@H]6[C@@H]5C[C@@H](O)[C@]5(C)[C@@H](C7=CC(=O)OC7)CC[C@]65O)C4)O[C@@H]3C)O[C@@H]2C)C[C@H](O)[C@@H]1O	3.03%

Another view of part of the listing above:

| Compound | cell viability |
| --- | --- |
| CC(=O)N1CCCC1C(=O)O (configuration not stated) | 108% |
| Oc1ccc(/C=C/c2cc(O)cc(O)c2)cc1 | 98.9% |
| Cc1c(N(C)C)c(=O)n(-c2ccccc2)n1C | 98.6% |
| Oc1c(Cl)cc(Cl)c(Cl)c1Cc1c(O)c(Cl)cc(Cl)c1Cl | 101% |

More entries:

Compound	cell viability
COc1ccc(-c2cc(=O)c3c(O)c(OC)c(O[C@@H]4O[C@H](CO[C@@H]5O[C@@H](C)[C@H](O)[C@@H](O)[C@H]5O)[C@@H](O)[C@H](O)[C@H]4O)cc3o2)cc1	101%
Cn1c(=O)[nH]c(=O)c2[nH]cnc21	110%
O=C(C1CCCCC1)N1CC(=O)N2CCc3ccccc3C2C1 (configuration not stated)	108%
C[C@]1(O)C[C@@H](c2nc(-c3ccc4ccc(-c5ccccc5)nc4c3)c3c(N)nccn32)C1 [OSI-906 (Linsitinib)]	100%
OC[C@H]1O[C@H](O[C@]2(CCl)O[C@H](CCl)[C@@H](O)[C@@H]2O)[C@H](O)[C@@H](O)[C@H]1Cl	83.8%
CNC(=O)c1cc(Oc2ccc(NC(=O)Nc3cc(C(C)(C)C)nn3-c3ccc4ncccc4c3)c(F)c2)ccn1 [DCC-2036 (Rebastinib)]	24.6%
O=C(O)[C@@H](O)[C@H](O)[C@H](O)[C@@H](O)C(=O)O	106%
Nc1nc2ccc(OC(F)(F)F)cc2s1	95.3%
Oc1cc(O)c2c(c1)O[C@H](c1ccc(O)c(O)c1)[C@H](O)C2	96.7%
COc1ccc2c(c1)c(CC(=O)O)c(C)n2C(=O)c1ccc(Cl)cc1	102%
CNC(=O)c1cc(Oc2ccc(NC(=O)Nc3ccc(Cl)c(C(F)(F)F)c3)c(F)c2)ccn1 [Regorafenib (BAY 73-4506)]	28.9%
C=C1c2c(Cl)ccc(O)c2C(=O)C2=C(O)[C@]3(O)C(=O)C(C(N)=O)=C(O)[C@@H](N(C)C)[C@@H]3[C@@H](O)[C@H]12.O=C(O)c1cc(S(=O)(=O)O)ccc1O	95.7%
O=C1C=C(O)C(=O)c2ccccc21	92.9%
CC(=O)NCCCS(=O)(=O)O	94.3%
COc1ccc2c(c1OC)C(=O)O[C@@H]2[C@H]1c2c(cc3c(c2OC)OCO3)CCN1C	96.7%
O=C(CCc1ccc(O)cc1)c1c(O)cc(O)cc1O	105%
O=C(CCc1ccc(O)cc1)c1c(O)cc(O)cc1O [Phloretin (Dihydronaringenin)]	96.9%
CC(=O)NS(=O)(=O)c1ccc(NC(=O)c2ccccc2C(=O)O)cc1	93.1%
COc1ccc(OC)c(C(O)CNC(=O)CN)c1 (configuration not stated)	104%
CN1CCN(CCCN2c3ccccc3Sc3ccc(C(F)(F)F)cc32)CC1	94.4%
CNC[C@H](O)c1ccc(O)c(O)c1	94.8%
CN(C(=O)C(Cl)Cl)c1ccc(OC(=O)c2ccco2)cc1	98.5%
CCc1cc(Nc2nccc(-c3c(-c4ccc(OC)c(C(=O)Nc5c(F)cccc5F)c4)nc4ccccn34)n2)c(OC)cc1N1CCC(N2CCN(S(C)(=O)=O)CC2)CC1	50.2%
CC(=O)c1ccc2c(c1)N(CCCN(C)C)c1ccccc1S2	99.2%
CN(C)CCOC(C)(c1ccccc1)c1ccccn1 (configuration not stated)	105%
COc1cc2nccc(Oc3ccc(NC(=O)Nc4cc(C)on4)c(Cl)c3)c2cc1OC [Tivozanib (AV-951)]	31.8%
